From patent US10801050B2, “Microorganism modified for the assimilation of levulinic acid” (priority 2015, dated 2020)

B1: Q0KA99_CUPNH: Ralstonia eutropha acyl-CoA synthetase (AMP-forming)/AMP-acid ligase II (EC 6.2.1.-), candidate for reaction A1 (protein)
chain: MTMQAESSPTILPIGGLSHVRGDTTIPLSEQTVPELLAQTVARYPERKAVAFREQGVRWNWREFSDAVDALAAGLHTLGLARGDRVGIWSPNRVEWLVTQFATARLGLVLVNINPAYRLSELEYALNKVGVKAIVAAEAFKTSRYLEMLQVLAPELATCAPGELQAARLPALRCVIRMGDDHTPGMLRYADVIARGTGVARSTLDAITAQLDRHDPINVQFTSGTTGAPKGATLTHRNIVNNARFIAMAMRFSEQDKLCIPVPFYHCFGMVLAVLACVSSGAAMVFPGQAFEPEATMQAVSEERCTALHGVPTMFIAQLDHPNFASYDFSSLRTGIMAGSPCPIETMKRVVSQMHMSEVTIAYGMTETSPVSFQSSTTDPLDKRTTTVGRIQPHLEVRIVDATGATVPVGETGELCTRGYSVMLGYWDDEARTAEAIRDGWMHTGDLATIDAEGYCNIVGRVKDMLIRGGENIYPREIEEFLFRHPKVQAVQVFGVPDQKYGEEVCAWIVLKPGASATEDEIRDFCRDQIAHYKIPRYIRFVDEMPMTITGKVQKFVMRERMTQDLKLSESRTA
modifications: Uniprot Name: Q0KA99_CUPNH: Acyl-CoA synthetase (AMP forming)/AMP-acid ligase II
notes: Ralstonia eutropha acyl-CoA synthetase (AMP-forming)/AMP-acid ligase II (EC 6.2.1.-), candidate for reaction A1
B2: Q0KC00_CUPNH: subunit of a Ralstonia eutropha succinyl-CoA:3-ketoacid-coenzyme A transferase (EC 2.8.3.5), gene H16_A1331 (protein)
chain: MNKVYASAAEALAGVVRDGQTIAVGGFGLCGIPEALIAALRDSGAKQLTCISNNAGVDGFGLGLLLATRQISKMISSYVGENKEFERQYLAGELELEFTPQGTLAEKLRAGGSGIPAFFTKTGVGTIVAEGKEIREFDGQQYVMERSLTADVALVKAYKADKAGNLVFRRTARNFNPMCAMAGKVTIAEVEHIVETGELDPDEIHLAGIFVKRLVLNTTPEKRIEQRTVRAAS
modifications: Uniprot Name: Q0KC00_CUPNH:Succinyl coA:3- ketoacid transferase subunit A
notes: subunit of a Ralstonia eutropha succinyl-CoA:3-ketoacid-coenzyme A transferase (EC 2.8.3.5), gene H16_A1331
B3: BKTB_CUPNH: Ralstonia eutropha beta-ketothiolase (EC 2.3.1.16/EC 2.3.1.9), candidate for reaction B (protein)
chain: MTREVVVVSGVRTAIGTFGGSLKDVAPAELGALVVREALARAQVSGDDVGHVVFGNVIQTEPRDMYLGRVAAVNGGVTINAPALTVNRLCGSGLQAIVSAAQTILLGDTDVAIGGGAESMSRAPYLAPAARWGARMGDAGLVDMMLGALHDPFHRIHMGVTAENVAKEYDISRAQQDEAALESHRRASAAIKAGYFKDQIVPVVSKGRKGDVTFDTDEHVRHDATIDDMTKLRPVFVKENGTVTAGNASGLNDAAAAVVMMERAEAERRGLKPLARLVSYGHAGVDPKAMGIGPVPATKIALERAGLQVSDLDVIEANEAFAAQACAVTKALGLDPAKVNPNGSGISLGHPIGATGALITVKALHELNRVQGRYALVTMCIGGGQGIAAIFERI
modifications: Uniprot name: BKTB_CUPNH : Beta-ketothiolase BktB (acetyl-coA acetyltransferase) (acetyl coA-acyltransferase)
notes: Ralstonia eutropha beta-ketothiolase (EC 2.3.1.16/EC 2.3.1.9), candidate for reaction B

Tested on: Ralstonia eutropha DSM428
Assay: Quantitative proteomics of Ralstonia eutropha DSM428 cultivated with or without levulinic acid (nanoLC-MS/MS)
Assay type: cell-based
Conditions: for expression level in response to levulinic acid (protein abundance, % of total proteins): Ralstonia eutropha DSM428, LB rich medium, 5 g/L vs 0 g/L levulinic acid, up-regulated = quantity at least multiplied by 2; for % of total proteins Without LA / % of total proteins With LA: Ralstonia eutropha DSM428, shake flasks, LB rich medium, nanoLC-MS/MS protein abundance; for % of total proteins Without LA: 0 g/L levulinic acid; for % of total proteins With LA: 5 g/L levulinic acid

Molecule	expression level in response to levulinic acid (protein abundance, % of total proteins)	% of total proteins Without LA	% of total proteins With LA	abundance compared with respective counterparts identified for reactions A and B (proteomics of Ralstonia eutropha DSM428)
B1	up-regulated	<0.06 % of total proteins	0.15 % of total proteins	–
B2	up-regulated	0.25 % of total proteins	0.95 % of total proteins	–
B3	up-regulated	0.40 % of total proteins	2.00 % of total proteins	more abundant
